The text below walks through data of patent US20100143385A1, “METHODS FOR REDUCING PHOSPHATE ABSORPTION” (priority 2006, published 2010).

This data set deals with chicks fed a phytic phosphorous basal diet. Briefly: chicken model: chicks fed Pi deficient phytic phosphorous diet with added 1α-hydroxyvitamin D3. In kind it is in vivo, Single Comb White Leghorn chicks. An excerpt:
Animal model: The dietary sources of inorganic phosphate (Pi) are largely mineral phosphates or phosphate from animal tissues and products (milk and eggs). These Pi sources are readily available for absorption by monogastric animals. In diseases where the uptake of phosphorous requires intervention, patients are usually required to avoid these foods and take Pi binders. While this is a useful strategy in reducing the absorption of Pi, patients taking alternative food (e.g., plant based foods) during the treatment of diseases such as end stage renal failure is exposed to another source of phosphate that may serve as a pool of Pi for absorption. Phytic phosphorous (PP) represents 70-80% of all phosphorous in plant based foods. PP is normally unavailable for absorption in monogastric animals when consumed and is excreted with the fecal waste.
Providing 1α-hydroxyvitamin D3 to the chickens fed the Pi deficient diet raised the serum phosphate level. Therefore, this model can be used to test whether anti-phytic acid antibodies would be effective in reducing increased serum phosphate levels from a phytic origin caused by 1α-hydroxyvitamin D3.
Animal experiment: The model used in this study was described by Biehl and Baker, J. Nutr. 1997, 127:2054-2059 with the exception of antibodies to phytic acid. […]

`C=C1/C(=C\C=C2/CCC[C@]3(C)[C@@H]([C@H](C)CCCC(C)C)CC[C@@H]23)C[C@@H](O)C[C@@H]1O` [1α-hydroxyvitamin D3]: for the setting “chicks, Pi deficient diet, day 1 to day 10, 1α-hydroxyvitamin D3 20 μg/kg diet alone, or plus antibody 1 g/kg diet”, the “Average gain (body weight)” value is 49.7 g. Further, the “increase of body weight gain” value (relative to Pi deficient negative control diet) worked out at 25%.
